# Source: the supplement of paper PMC8728848
# The list shows a part of the results.
# B1: SRS6 (Toxoplasma gondii), Q9NH12 (protein)
# chain: MARTGSMQQRRGGFQTTARMLMAVCVSGVLLLSSGPSSANKLTEGQQNQNSGPGAATQEGPTIEGAVAKCVLKTTAAENGSSRAKNTTGLTLSKENLVVSLQCSGEKNAIVPKDQKKVCSAAPNAKVADCKGADTDKQVTLKSLLGTSGDIQWEKTIVSTDNKGEVMTLKIKESELPLFDKAFFVGCEEDKAQTRTSQATECKVNVSVKARPSTVGENNVVTCAYGKDSNPRPLEVEMSADNDTLTIDCGTDGSLKPTKYTEEFCVTDNSQLESCTTKKFSEILPTFLPSWWVSDSQNGSAKLTIPESGFPEEQQQFRLGCVPKKTTQSPQANPSVKTEKEEGAQNTDASTSNCSVIVTVKASNFSSLASSIAPTAAVAGGAAALTGFLVGSF
# Key:
# Assay in all cases: glycan array binding signal (z-score within array); higher = stronger binding
# Conditions in all cases: glycan notation: IUPAC condensed, linker removed
# [1] = molecular target: GlcNAc(b1-3)Gal(b1-4)GlcNAc(b1-3)Gal(b1-4)GlcNAc
# Procedure, shortened: (§1)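 The binding signal is a Z-score computed within each array and averaged over linkers. Arrays of the same protein sequence at different concentrations or buffers were also averaged together. Data originate from 3228 arrays in the Consortium for Functional Glycomics database, kept only where the protein sequence was available.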
# GlcNAc(b1-3)GalNAc = molecular target: GlcNAc(b1-3)GalNAc
# Procedure, shortened: as §1
# GlcNAc(b1-3)Man = molecular target: GlcNAc(b1-3)Man
# Procedure, shortened: as §1
# [2] = molecular target: GlcNAc(b1-3)[GlcNAc(b1-4)][GlcNAc(b1-6)]GlcNAc
# Procedure, shortened: as §1
# [3] = molecular target: GlcNAc(b1-3)[GlcNAc(b1-6)]Gal(b1-4)GlcNAc
# Procedure, shortened: as §1
# [4] = molecular target: GlcNAc(b1-3)[GlcNAc(b1-6)]GalNAc
# Procedure, shortened: as §1
# [5] = molecular target: GlcNAc(b1-4)Gal(b1-4)GlcNAc
# Procedure, shortened: as §1
# GlcNAc(b1-4)GlcNAc = molecular target: GlcNAc(b1-4)GlcNAc
# Procedure, shortened: as §1
# [6] = molecular target: GlcNAc(b1-4)GlcNAc(b1-4)GlcNAc
# Procedure, shortened: as §1
# [7] = molecular target: GlcNAc(b1-4)GlcNAc(b1-4)GlcNAc(b1-4)GlcNAc(b1-4)GlcNAc
# Procedure, shortened: as §1
# [8] = molecular target: GlcNAc(b1-4)GlcNAc(b1-4)GlcNAc(b1-4)GlcNAc(b1-4)GlcNAc(b1-4)GlcNAc
# Procedure, shortened: as §1
# [9] = molecular target: GlcNAc(b1-4)[GlcNAc(b1-6)]GalNAc
# Procedure, shortened: as §1
# [10] = molecular target: GlcNAc(b1-6)Gal(b1-4)GlcNAc
# Procedure, shortened: as §1
# GlcNAc(b1-6)GalNAc = molecular target: GlcNAc(b1-6)GalNAc
# Procedure, shortened: as §1
# GlcNAc3Prop(b1-4)GlcNAc = molecular target: GlcNAc3Prop(b1-4)GlcNAc
# Procedure, shortened: as §1
# [11] = molecular target: GlcNAc6S(b1-3)Gal(b1-4)GlcNAc
# Procedure, shortened: as §1
# Kdn(a2-3)Gal(b1-3)GalNAc = molecular target: Kdn(a2-3)Gal(b1-3)GalNAc
# Procedure, shortened: as §1
# Kdn(a2-3)Gal(b1-3)GlcNAc = molecular target: Kdn(a2-3)Gal(b1-3)GlcNAc
# Procedure, shortened: as §1
# Kdn(a2-3)Gal(b1-4)Glc = molecular target: Kdn(a2-3)Gal(b1-4)Glc
# Procedure, shortened: as §1
# Kdn(a2-3)Gal(b1-4)GlcNAc = molecular target: Kdn(a2-3)Gal(b1-4)GlcNAc
# Procedure, shortened: as §1
# [12] = molecular target: Kdn(a2-3)Gal(b1-4)[Fuc(a1-3)]GlcNAc
# Procedure, shortened: as §1
# Kdn(a2-6)Gal(b1-4)GlcNAc = molecular target: Kdn(a2-6)Gal(b1-4)GlcNAc
# Procedure, shortened: as §1
# [13] = molecular target: Man(a1-2)Man(a1-2)Man(a1-3)Man
# Procedure, shortened: as §1
# [14] = molecular target: Man(a1-2)Man(a1-2)Man(a1-6)[Man(a1-3)]Man
# Procedure, shortened: as §1
# Man(a1-2)Man(a1-3)Man = molecular target: Man(a1-2)Man(a1-3)Man
# Procedure, shortened: as §1
# [15] = molecular target: Man(a1-2)Man(a1-3)[Man(a1-2)Man(a1-6)]Man
# Procedure, shortened: as §1
# [16] = molecular target: Man(a1-2)Man(a1-3)[Man(a1-2)Man(a1-6)]Man(a1-6)[Man(a1-2)Man(a1-2)Man(a1-3)]Man
# Procedure, shortened: as §1
# [17] = molecular target: Man(a1-2)Man(a1-3)[Man(a1-2)Man(a1-6)]Man(a1-6)[Man(a1-2)Man(a1-2)Man(a1-3)]Man(b1-4)GlcNAc(b1-4)GlcNAc
# Procedure, shortened: as §1
# [18] = molecular target: Man(a1-2)Man(a1-3)[Man(a1-6)]Man(a1-6)[Man(a1-2)Man(a1-3)]Man(b1-4)GlcNAc(b1-4)GlcNAc
# Procedure, shortened: as §1
# [19] = molecular target: Man(a1-2)Man(a1-6)[Man(a1-3)]Man(a1-6)[Man(a1-2)Man(a1-2)Man(a1-3)]Man
# Procedure, shortened: as §1
# [20] = molecular target: Man(a1-2)Man(a1-6)[Man(a1-3)]Man(a1-6)[Man(a1-2)Man(a1-2)Man(a1-3)]Man(b1-4)GlcNAc(b1-4)GlcNAc
# Procedure, shortened: as §1
# Man(a1-3)[Man(a1-6)]Man = molecular target: Man(a1-3)[Man(a1-6)]Man
# Procedure, shortened: as §1
# [21] = molecular target: Man(a1-3)[Man(a1-6)]Man(a1-6)[Man(a1-2)Man(a1-3)]Man(b1-4)GlcNAc(b1-4)GlcNAc
# Procedure, shortened: as §1
# [22] = molecular target: Man(a1-3)[Man(a1-6)]Man(a1-6)[Man(a1-3)]Man
# Procedure, shortened: as §1
# [23] = molecular target: Man(a1-3)[Man(a1-6)]Man(a1-6)[Man(a1-3)]Man(b1-4)GlcNAc(b1-4)GlcNAc
# Procedure, shortened: as §1
# [24] = molecular target: Man(a1-3)[Man(a1-6)]Man(b1-4)GlcNAc(b1-4)GlcNAc
# Procedure, shortened: as §1
# Man(a1-6)Man = molecular target: Man(a1-6)Man
# Procedure, shortened: as §1
binder,measurement,setting,value
B1,glycan array binding signal (z-score),[1],-1.2
same,glycan array binding signal (z-score),GlcNAc(b1-3)GalNAc,-0.849
same,glycan array binding signal (z-score),GlcNAc(b1-3)Man,0.884
same,glycan array binding signal (z-score),[2],-0.791
same,glycan array binding signal (z-score),[3],0.35
same,glycan array binding signal (z-score),[4],-0.548
same,glycan array binding signal (z-score),[5],-0.257
same,glycan array binding signal (z-score),GlcNAc(b1-4)GlcNAc,-0.382
same,glycan array binding signal (z-score),[6],0.113
same,glycan array binding signal (z-score),[7],-0.431
same,glycan array binding signal (z-score),[8],-0.638
same,glycan array binding signal (z-score),[9],-1.01
same,glycan array binding signal (z-score),[10],0.148
same,glycan array binding signal (z-score),GlcNAc(b1-6)GalNAc,-0.861
same,glycan array binding signal (z-score),GlcNAc3Prop(b1-4)GlcNAc,0.55
same,glycan array binding signal (z-score),[11],-0.536
same,glycan array binding signal (z-score),Kdn(a2-3)Gal(b1-3)GalNAc,1.54
same,glycan array binding signal (z-score),Kdn(a2-3)Gal(b1-3)GlcNAc,-0.434
same,glycan array binding signal (z-score),Kdn(a2-3)Gal(b1-4)Glc,0.224
same,glycan array binding signal (z-score),Kdn(a2-3)Gal(b1-4)GlcNAc,0.128
same,glycan array binding signal (z-score),[12],0.148
same,glycan array binding signal (z-score),Kdn(a2-6)Gal(b1-4)GlcNAc,-0.779
same,glycan array binding signal (z-score),[13],0.984
same,glycan array binding signal (z-score),[14],-0.918
same,glycan array binding signal (z-score),Man(a1-2)Man(a1-3)Man,-0.108
same,glycan array binding signal (z-score),[15],-0.314
same,glycan array binding signal (z-score),[16],0.268
same,glycan array binding signal (z-score),[17],-0.138
same,glycan array binding signal (z-score),[18],0.14
same,glycan array binding signal (z-score),[19],-0.006
same,glycan array binding signal (z-score),[20],0.131
same,glycan array binding signal (z-score),Man(a1-3)[Man(a1-6)]Man,-0.157
same,glycan array binding signal (z-score),[21],1.44
same,glycan array binding signal (z-score),[22],-0.083
same,glycan array binding signal (z-score),[23],0.066
same,glycan array binding signal (z-score),[24],-0.88
same,glycan array binding signal (z-score),Man(a1-6)Man,-0.965

# At a glance, part of the list above:
binder,measurement,setting,value
B1,glycan array binding signal (z-score),[8],-0.638
same,glycan array binding signal (z-score),[9],-1.01
